# Screen size: about 310,000 compounds; about 17,000 (5.5%) were called active. The inconclusive results got no clear call from the source; some entries with a clear call stand among them for comparison. Calls follow the shape of the dose curve; as a rule, active = well fitted inhibition curve with a large enough effect; inconclusive = small, poorly fitted or top-dose-only effect, or effect the other way; inactive = no such curve, though single readings can be large or run the other way. Where the call is inconclusive, the potency comes from a doubtful curve fit.
# Protein sequences, listed by entry. Tags and fused reporters are not part of them. Lines headed by an entry give the natural chain unless they say otherwise; changes in a name come on top.
# UniProt P51450: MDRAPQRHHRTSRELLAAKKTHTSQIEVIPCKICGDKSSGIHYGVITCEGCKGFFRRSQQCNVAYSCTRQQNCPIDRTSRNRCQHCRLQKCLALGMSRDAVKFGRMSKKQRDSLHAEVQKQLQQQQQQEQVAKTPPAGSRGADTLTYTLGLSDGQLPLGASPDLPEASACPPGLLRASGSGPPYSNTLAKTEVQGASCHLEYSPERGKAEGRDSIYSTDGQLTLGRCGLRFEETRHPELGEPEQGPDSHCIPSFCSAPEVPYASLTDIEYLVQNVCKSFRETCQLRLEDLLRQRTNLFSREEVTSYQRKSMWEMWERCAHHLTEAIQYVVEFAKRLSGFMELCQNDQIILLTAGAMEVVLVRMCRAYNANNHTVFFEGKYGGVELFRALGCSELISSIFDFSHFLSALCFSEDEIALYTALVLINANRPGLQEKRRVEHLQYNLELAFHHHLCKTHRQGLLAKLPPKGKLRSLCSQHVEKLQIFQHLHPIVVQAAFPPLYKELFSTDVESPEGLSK
# Biological target: Nuclear receptor ROR-gamma (Mus musculus) (UniProt P51450)
# Test: qHTS for inhibitors of ROR gamma transcriptional activity; also: nearly all actives have a fitted effect of over 60% in size
# Conditions: Drosophila S2 Gal4-RORgamma UAS-luciferase reporter, 20 h; activity change, negative = inhibition: at 53.6 µM (top of the series)
# In short: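 ROR gamma transcriptional activity was tracked as Gal4-UAS luciferase output in stably transfected Drosophila Schneider cells, with compound added 1 hr before 700 uM copper sulfate induction and a 20 hr ambient-temperature incubation.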
# % is scaled to controls: 0 for no effect and ±100 for the full control effect; potency is read from the fitted curve at half-maximal effect.
SMILES,"activity change, negative = inhibition",Potency
Cc1ccsc1/C=C/C1=Cc2c(sc(NC(=O)CSc3n[nH]c(N)n3)c2C#N)C(C)(C)C1,inactive: 3.35%,–
COc1ccccc1C(=O)N(CCN(C)C)c1nc2cc(C)cc(C)c2s1,inactive: -21.6%,–
CCNC(=O)C/C(C)=N/NC(=O)C12CC3CC(CC(C3)C1)C2,inactive: -26.9%,–
O=C(C1=C[C@H](c2ccc(C(F)(F)F)cc2)C[C@H](OCCCCO)O1)N1CCN(Cc2ccccc2)CC1,–,"inconclusive: 17.8 µM [activator, single point]"
CC1CCC(NC(=O)CCCCn2c(=O)[nH]c3ccsc3c2=O)CC1 (centres undefined),–,"inconclusive: 35.5 µM [activator, single point]"
C#CCOc1ccc(/C=C2/C(=O)ON=C2C)cc1Br,inactive: 7.94%,–
O=c1cc(CN2CCN(c3cccc(C(F)(F)F)c3)CC2)nc2sccn12,inactive: 22.6%,–
CCN1CCCc2cc(CN(CCN3CCOCC3)C(=S)Nc3cccc(C)c3)ccc21,–,active: 6.31 µM
c1ccc(-c2csc(-c3ccc(-c4csnn4)cc3)n2)cc1,–,"inconclusive: 2.82 µM [activator, full curve, poor fit]"
O=c1nc(N2CCOCC2)ccn1-c1nc(-c2ccccc2)sc1-c1ccccc1,–,"inconclusive: 12.6 µM [inhibitor, single point]"
Cc1ccc(C)c(N(CC(=O)NC(C)(C)C)C(=O)CCC(=O)Nc2nccs2)c1,–,"inconclusive: 15.8 µM [activator, single point]"
O=C(N/N=C/c1ccc[nH]1)c1cccc(Br)c1,–,active: 2.82 µM
Cc1cc(NC(=O)CC#N)n(-c2nc3ccccc3[nH]2)n1,–,"inconclusive: 35.5 µM [inhibitor, single point]"
COC(=O)c1cc(-c2ccc(Br)cc2)n[nH]1,–,"inconclusive: 7.08 µM [activator, partial curve, poor fit]"
O=C1CC(c2cccs2)Cc2nc(NCC3CCCO3)ncc21 (centres undefined),–,"inconclusive: 25.1 µM [activator, single point]"
CC(=O)c1ccc(N2CCN(C(=O)c3ccc(-c4ccccc4)cc3)CC2)cc1,–,"inconclusive: 12.6 µM [activator, single point]"
N#C/C(=C\c1c(N2CCCCCC2)nc2ccccn2c1=O)C(=O)NCc1ccco1,–,"inconclusive: 12.6 µM [activator, partial curve]"
COc1ccc(C(=O)CSc2nc3ccccc3n2CC(=O)c2ccccc2)cc1,inactive: -10.4%,–
COc1ccc(Nc2oc(-c3cccs3)nc2C#N)cc1,–,"inconclusive: 1.12 µM [activator, partial curve]"
COc1ccc(-c2nn(-c3ccccc3)cc2CNC(=O)c2cccc([N+](=O)[O-])c2)cc1,–,"inconclusive: 6.31 µM [activator, single point]"
O=C(NCCN1CCN(Cc2ccccc2)CC1)c1cc2c(=O)[nH]c3ccccc3c2s1,–,"inconclusive: 35.5 µM [inhibitor, single point]"
O=C(Oc1ccc(NC2=C(Cl)C(=O)c3ccccc3C2=O)cc1)c1ccc([N+](=O)[O-])cc1,–,"inconclusive: 7.08 µM [inhibitor, full curve]"
CCCCCCc1cc2cc(C(=O)NCc3ccccc3)c(=N)oc2cc1O,–,"inconclusive: 1.26 µM [activator, full curve]"

# Filtered by structure, the entries above with an aryl thioether with sulfur outside any ring (2)
SMILES,"activity change, negative = inhibition",Potency
Cc1ccsc1/C=C/C1=Cc2c(sc(NC(=O)CSc3n[nH]c(N)n3)c2C#N)C(C)(C)C1,inactive: 3.35%,–
COc1ccc(C(=O)CSc2nc3ccccc3n2CC(=O)c2ccccc2)cc1,inactive: -10.4%,–

# Remaining list, next part

SMILES,"activity change, negative = inhibition",Potency
COc1ccc(C)cc1S(=O)(=O)N(CC(=O)Nc1cccc([N+](=O)[O-])c1)c1cc(C)cc(C)c1,–,"inconclusive: 35.5 µM [inhibitor, single point]"
COc1ccc(C2NC(=O)NC(C)=C2C(=O)OC2CCCC(C)C2)cc1 (centres undefined),–,"inconclusive: 17.8 µM [activator, single point]"
COC(=O)c1c(NC(=O)Cc2cccs2)sc(C(=O)N2CCCCC2)c1C,–,"inconclusive: 1.26 µM [activator, full curve]"
Cc1nn(-c2ccccc2)c(C)c1C(=O)NCCc1ccc(Cl)cc1,–,"inconclusive: 17.8 µM [inhibitor, single point]"
CC(=O)N1CCc2cc(S(=O)(=O)NCCC(=O)NC3CCCCCC3)ccc21,–,"inconclusive: 17.8 µM [activator, single point]"
O=C(c1cc(COc2ccc3ncccc3c2)on1)N1CCCC1,–,"inconclusive: 3.98 µM [activator, partial curve]"
CC(C)(C)NC(=O)C(c1cccs1)N(Cc1cccs1)C(=O)c1ccc(CN2CCOCC2)o1 (centres undefined),–,"inconclusive: 12.6 µM [activator, single point]"
O=C(c1ccc(Br)cc1)N(Cc1nc2ccccc2c(=O)[nH]1)C1CCCC1,–,active: 15.8 µM
CCC(C)c1ccc(C(CC)NC(=O)C2CCCO2)cc1 (centres undefined),–,"inconclusive: 35.5 µM [activator, single point]"
COc1ccccc1C1=Nn2c(nnc2-c2ccccc2O)SC1,–,"inconclusive: 20 µM [inhibitor, single point]"
CC(C)CNC(=O)CCc1c[nH]c2ccccc12,–,"inconclusive: 31.6 µM [activator, single point]"
COc1ccc(NC(=O)CSc2nccc(C)n2)cc1,inactive: -0.578% [at 0.365 µM],–
Cc1c(Nc2nc3ccccc3nc2NS(=O)(=O)c2cccs2)c(=O)n(-c2ccccc2)n1C,–,"inconclusive: 0.891 µM [inhibitor, single point]"
C/C(Cl)=C\Cn1c(O)c(N=NC(N)=S)c2cc(Br)ccc21,–,active: 3.16 µM
CCSc1nsc(NC(=O)Nc2cccc(F)c2)n1,–,"inconclusive: 0.316 µM [activator, partial curve]"
Cc1ccc(-c2nnc(SCC#CCOC(=O)c3ccco3)o2)cc1,–,"inconclusive: 35.5 µM [inhibitor, single point]"
CSc1cccc(NC(=S)N(Cc2ccccc2)Cc2cccnc2)c1,–,"inconclusive: 22.4 µM [inhibitor, single point]"
COC(=O)C1(C(=O)OC)Cc2conc2[C@H]1c1ccccc1,–,inactive
CCCCNS(=O)(=O)c1ccc2nc(-c3cccs3)cc(C(=O)NCC(OC)OC)c2c1,inactive: 3.83%,–
COC(=O)c1ccc(NC(=O)CN2CCN(c3cccc(Cl)c3)CC2)cc1,–,"inconclusive: 10 µM [activator, single point]"
Cc1ccc(NC(=O)c2cc(=O)c3ccccc3o2)cc1,–,"inconclusive: 2.82 µM [activator, partial curve, poor fit]"
C[C@@]12CCC3c4ccc(O)cc4CCC3C1CCC2O (some centres undefined),–,"inconclusive: 4.47 µM [inhibitor, full curve, poor fit]"
COc1ccc(C(=O)N/C(=C\c2cn(S(=O)(=O)N(C)C)c3ccccc23)C(=O)N2CCOCC2)cc1,inactive: 7.1%,–

# Already shown: an excerpt of the list.
SMILES,"activity change, negative = inhibition",Potency
COc1ccc(NC(=O)CSc2nccc(C)n2)cc1,inactive: -0.578% [at 0.365 µM],–
Cc1c(Nc2nc3ccccc3nc2NS(=O)(=O)c2cccs2)c(=O)n(-c2ccccc2)n1C,–,"inconclusive: 0.891 µM [inhibitor, single point]"

# Exported with bars between the fields: entries from further up.
SMILES | activity change, negative = inhibition | Potency
Cc1nn(-c2ccccc2)c(C)c1C(=O)NCCc1ccc(Cl)cc1 | – | inconclusive: 17.8 µM [inhibitor, single point]
CC(C)CNC(=O)CCc1c[nH]c2ccccc12 | – | inconclusive: 31.6 µM [activator, single point]

# Remaining list, next part:

SMILES,"activity change, negative = inhibition",Potency
O=C1c2ccccc2C(=O)N1CCSc1nnc(-c2ccco2)n1Cc1ccccc1,–,"inconclusive: 5.01 µM [activator, partial curve, poor fit]"
Cc1cccc(N=Nc2c(C)nn(-c3ccccc3)c2N)c1C,–,active: 2.51 µM
O=C(CCCc1nc2ccccc2s1)NCc1ccccc1,–,"inconclusive: 12.6 µM [activator, single point]"
O=C(NCc1ccco1)/C(=C/C=C\c1ccccc1)NC(=O)c1ccc(Br)o1,–,"inconclusive: 12.6 µM [activator, partial curve]"
N/C(=N\OC(=O)c1ccc2ccccc2c1)c1ccccn1,–,active: 4.47 µM
O=[N+]([O-])c1ccc2nc(-[n+]3c(-c4ccccc4)cc(-c4ccccc4)cc3-c3ccccc3)[nH]c2c1,–,"inconclusive: 35.5 µM [inhibitor, single point]"
Cc1ccc(NC(=O)CN2CCc3ccccc3C2)cc1S(=O)(=O)N1CCOCC1,–,"inconclusive: 11.2 µM [activator, partial curve, poor fit]"
Cc1nc2cc(C(F)(F)F)ccc2n1CCNc1nc(-c2cc(Cl)c(N)c(Cl)c2)cs1,–,active: 17.8 µM
CCn1c(SCC(=O)N2CCCc3ccccc32)nnc1-c1c[nH]c2ccccc12,–,"inconclusive: 12.6 µM [activator, partial curve]"
O=C(c1c(F)cccc1F)N1CCCC(c2nc(-c3ccc(Cl)cc3)no2)C1 (centres undefined),–,"inconclusive: 12.6 µM [activator, partial curve]"
CCc1ccc(-c2cc(C)no2)cc1S(=O)(=O)N1CCN(c2ccc(OC)cc2)CC1,inactive: 20.6%,–
N#CCC(=O)N/N=C1\CCCCC1C1CCCCC1 (centres undefined),inactive: -1.09%,–
CN(C)c1ccc(/C=N/NC(=O)c2ccccn2)cc1,inactive: -44%,–
CC(=O)OCC(=O)[C@H]1CC[C@H]2[C@@H]3CCC4=CC(=O)CC[C@]4(C)[C@H]3CC[C@]12C,–,inactive
COc1ccccc1C(=O)Nc1nnc(-c2ccco2)s1,–,"inconclusive: 10 µM [inhibitor, single point]"
COc1ccc(-c2noc(CCCC(=O)Nc3cccnc3)n2)cc1OC,inactive: 6.65%,–
COC(=O)c1ccc(C(=O)NC2CCCc3c2cnn3-c2ccc(C)c(C)c2)cc1 (centres undefined),–,"inconclusive: 2.24 µM [activator, partial curve, poor fit]"
COC(=O)N/N=C(\C)c1ccc(Br)cc1,inactive: 41.5%,–
Cc1csc2nc(SCC(=O)Nc3ccccc3F)[nH]c(=O)c12,inactive: 25.9%,–
Cc1ccc(C(O)c2nc3ccccc3n2C)cc1 (centres undefined),inactive: -0.415%,–
O=c1oc2c(O)cccc2cc1-c1nc2ccccc2[nH]1,–,"inconclusive: 35.5 µM [inhibitor, single point]"
CCOC(=O)C1CCCN(c2c(NCCCN(CC)c3cccc(C)c3)c(=O)c2=O)C1 (centres undefined),inactive: 17.5%,–
COc1ccc(CCNC(=S)NCc2ccc(Cl)c(Cl)c2)cc1OC,–,"inconclusive: 35.5 µM [inhibitor, single point]"
